From doi:10.1101/2021.06.14.448173
No constants are given. Whether binding was seen depends on the method and setting. Sequences can lack the tags named with a protein.

T1: pre-mRNA-processing factor 39a (PRP39a), GAL4 DNA binding domain fusion (Arabidopsis thaliana) (UniProt Q93ZR3)
T1 sequence: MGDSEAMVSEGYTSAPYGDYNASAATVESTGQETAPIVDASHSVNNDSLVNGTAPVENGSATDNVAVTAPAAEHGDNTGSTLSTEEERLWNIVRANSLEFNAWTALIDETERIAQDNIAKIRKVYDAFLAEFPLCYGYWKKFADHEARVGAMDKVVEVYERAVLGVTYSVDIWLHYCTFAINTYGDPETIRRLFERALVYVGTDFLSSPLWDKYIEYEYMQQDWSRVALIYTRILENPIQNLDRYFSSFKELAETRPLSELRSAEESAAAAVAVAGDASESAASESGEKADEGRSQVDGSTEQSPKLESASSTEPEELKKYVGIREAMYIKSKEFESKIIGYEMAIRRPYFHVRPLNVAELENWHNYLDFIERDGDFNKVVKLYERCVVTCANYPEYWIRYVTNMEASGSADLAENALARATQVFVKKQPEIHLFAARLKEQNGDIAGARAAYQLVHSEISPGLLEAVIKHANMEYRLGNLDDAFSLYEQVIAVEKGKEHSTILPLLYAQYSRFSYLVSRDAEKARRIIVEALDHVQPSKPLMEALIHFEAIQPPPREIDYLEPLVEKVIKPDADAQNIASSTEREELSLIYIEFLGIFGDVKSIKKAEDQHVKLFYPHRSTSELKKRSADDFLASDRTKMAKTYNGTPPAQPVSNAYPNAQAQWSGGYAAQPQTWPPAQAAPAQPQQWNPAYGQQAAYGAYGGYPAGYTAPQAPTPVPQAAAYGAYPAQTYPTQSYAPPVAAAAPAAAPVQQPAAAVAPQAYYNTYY


Target: T1, pre-mRNA-processing factor 39a (PRP39a), GAL4 DNA binding domain fusion (Arabidopsis thaliana)
Test: two-hybrid

Binder | binding
RBP45a, GAL4 activation domain fusion (protein, UniProt Q9FPJ8 1-387) MQQPPSNAAGAGQIPSGQQHLWMMMQQQQQQQQMQLSAAPLGQHQYGIGSQNPGSASDVKSLWIGDLQQWMDENYIMSVFAQSGEATSAKVIRNKLTGQSEGYGFIEFVSHSVAERVLQTYNGAPMPSTEQTFRLNWAQAGAGEKRFQTEGPDHTIFVGDLAPEVTDYMLSDTFKNVYGSVKGAKVVLDRTTGRSKGYGFVRFADENEQMRAMTEMNGQYCSTRPMRIGPAANKNALPMQPAMYQNTQGANAGDNDPNNTTIFVGGLDANVTDDELKSIFGQFGELLHVKIPPGKRCGFVQYANKASAEHALSVLNGTQLGGQSIRLSWGRSPNKQSDQAQWNGGGYYGYPPQPQGGYGYAAQPPTQDPNAYYGGYTGYGNYQQQRQ | no binding
RBP47a, GAL4 activation domain fusion (protein, UniProt F4I3B3 1-445) MQTPNNNGSTDSVLPPTSAGTTPPPPLQQSTPPPQQQQQQQWQQQQQWMAAMQQYPAAAMAMMQQQQMMMYPHPQYAPYNQAAYQQHPQFQYAAYQQQQQQHHQSQQQPRGGSGGDDVKTLWVGDLLHWMDETYLHTCFSHTNEVSSVKVIRNKQTCQSEGYGFVEFLSRSAAEEALQSFSGVTMPNAEQPFRLNWASFSTGEKRASENGPDLSIFVGDLAPDVSDAVLLETFAGRYPSVKGAKVVIDSNTGRSKGYGFVRFGDENERSRAMTEMNGAFCSSRQMRVGIATPKRAAAYGQQNGSQALTLAGGHGGNGSMSDGESNNSTIFVGGLDADVTEEDLMQPFSDFGEVVSVKIPVGKGCGFVQFANRQSAEEAIGNLNGTVIGKNTVRLSWGRSPNKQWRSDSGNQWNGGYSRGQGYNNGYANQDSNMYATAAAAVPGAS | no binding
RBP45c, GAL4 activation domain fusion (protein, UniProt Q93W34 1-415) MMQQPPPASNGAATGPGQIPSDQQAYLQQQQSWMMQHQQQQQGQPPAGWNQQSAPSSGQPQQQQYGGGGSQNPGSAGEIRSLWIGDLQPWMDENYLMNVFGLTGEATAAKVIRNKQNGYSEGYGFIEFVNHATAERNLQTYNGAPMPSSEQAFRLNWAQLGAGERRQAEGPEHTVFVGDLAPDVTDHMLTETFKAVYSSVKGAKVVNDRTTGRSKGYGFVRFADESEQIRAMTEMNGQYCSSRPMRTGPAANKKPLTMQPASYQNTQGNSGESDPTNTTIFVGAVDQSVTEDDLKSVFGQFGELVHVKIPAGKRCGFVQYANRACAEQALSVLNGTQLGGQSIRLSWGRSPSNKQTQPDQAQYGGGGGYYGYPPQGYEAYGYAPPPQDPNAYYGGYAGGGYGNYQQPGGYQQQQQ | no binding
RBP45b, GAL4 activation domain fusion (protein, UniProt Q9SAB3 1-405) MMQQPPPGGILPHHAPPPSAQQQYGYQQPYGIAGAAPPPPQMWNPQAAAPPSVQPTTADEIRTLWIGDLQYWMDENFLYGCFAHTGEMVSAKVIRNKQTGQVEGYGFIEFASHAAAERVLQTFNNAPIPSFPDQLFRLNWASLSSGDKRDDSPDYTIFVGDLAADVTDYILLETFRASYPSVKGAKVVIDRVTGRTKGYGFVRFSDESEQIRAMTEMNGVPCSTRPMRIGPAASKKGVTGQRDSYQSSAAGVTTDNDPNNTTVFVGGLDASVTDDHLKNVFSQYGEIVHVKIPAGKRCGFVQFSEKSCAEEALRMLNGVQLGGTTVRLSWGRSPSNKQSGDPSQFYYGGYGQGQEQYGYTMPQDPNAYYGGYSGGGYSGGYQQTPQAGQQPPQQPPQQQQVGFSY | no binding

Now from value to binder:

binding | Binder
no binding | RBP47c’, GAL4 activation domain fusion (protein, UniProt Q9SX80 1-434) MADVKVQSESESSDSHPLVDYQSLPPYPPPHPPVEVEENQPKTSPTPPPPHWMRYPPVLMPQMMYAPPPPMPFSPYHQYPNHHHFHHQSRGNKHQNAFNGENKTIWVGDLQNWMDEAYLNSAFTSAEEREIVSLKVIRNKHNGSSEGYGFVEFESHDVADKVLQEFNGAPMPNTDQPFRLNWASFSTGEKRLENNGPDLSIFVGDLAPDVSDALLHETFSEKYPSVKAAKVVLDANTGRSKGYGFVRFGDENERTKAMTEMNGVKCSSRAMRIGPATPRKTNGYQQQGGYMPSGAFTRSEGDTINTTIFVGGLDSSVTDEDLKQPFSEFGEIVSVKIPVGKGCGFVQFVNRPNAEEALEKLNGTVIGKQTVRLSWGRNPANKQPRDKYGNQWVDPYYGGQFYNGYGYMVPQPDPRMYPAAPYYPMYGGHQQQVS
no binding | RBP47c, GAL4 activation domain fusion (protein, UniProt Q9SX79 1-432) MADVKIQSESESSDSHPVVDNQPPPPPPPPQQPAKEEENQPKTSPTPPPHWMRYPPTVIIPHQMMYAPPPFPPYHQYPNHHHLHHQSRGNKHQNAFNGENKTIWVGDLHHWMDEAYLNSSFASGDEREIVSVKVIRNKNNGLSEGYGFVEFESHDVADKVLREFNGTTMPNTDQPFRLNWASFSTGEKRLENNGPDLSIFVGDLSPDVSDNLLHETFSEKYPSVKAAKVVLDANTGRSKGYGFVRFGDENERTKAMTEMNGVKCSSRAMRIGPATPRKTNGYQQQGGYMPNGTLTRPEGDIMNTTIFVGGLDSSVTDEDLKQPFNEFGEIVSVKIPVGKGCGFVQFVNRPNAEEALEKLNGTVIGKQTVRLSWGRNPANKQPRDKYGNQWVDPYYGGQFYNGYGYMVPQPDPRMYPAAPYYPMYGGHQQQVS
no binding | RBP47b, GAL4 activation domain fusion (protein, UniProt Q0WW84 1-435) MQTTNGSDSTLATSGATPPNQQTPPPPQQWQQQQQQQQQWMAAMQYPPAAAMMMMQQQQMLMYPHQYVPYNQGPYQQHHPQLHQYGSYQQHQHQQHKAIDRGSGDDVKTLWVGDLLHWMDETYLHSCFSHTGEVSSVKVIRNKLTSQSEGYGFVEFLSRAAAEEVLQNYSGSVMPNSDQPFRINWASFSTGEKRAVENGPDLSVFVGDLSPDVTDVLLHETFSDRYPSVKSAKVVIDSNTGRSKGYGFVRFGDENERSRALTEMNGAYCSNRQMRVGIATPKRAIANQQQHSSQAVILAGGHGSNGSMGYGSQSDGESTNATIFVGGIDPDVIDEDLRQPFSQFGEVVSVKIPVGKGCGFVQFADRKSAEDAIESLNGTVIGKNTVRLSWGRSPNKQWRGDSGQQWNGGYSRGHGYNNGGGYANHHDSNNYHGEN
